We go through one molecule from patent US20100172938A1.

In this experiment the target is T1, wild type SA-protein (S-layer protein, slpA product) of L. acidophilus ATCC 4356 (Lactobacillus acidophilus ATCC 4356) (UniProt P35829).
T1 sequence: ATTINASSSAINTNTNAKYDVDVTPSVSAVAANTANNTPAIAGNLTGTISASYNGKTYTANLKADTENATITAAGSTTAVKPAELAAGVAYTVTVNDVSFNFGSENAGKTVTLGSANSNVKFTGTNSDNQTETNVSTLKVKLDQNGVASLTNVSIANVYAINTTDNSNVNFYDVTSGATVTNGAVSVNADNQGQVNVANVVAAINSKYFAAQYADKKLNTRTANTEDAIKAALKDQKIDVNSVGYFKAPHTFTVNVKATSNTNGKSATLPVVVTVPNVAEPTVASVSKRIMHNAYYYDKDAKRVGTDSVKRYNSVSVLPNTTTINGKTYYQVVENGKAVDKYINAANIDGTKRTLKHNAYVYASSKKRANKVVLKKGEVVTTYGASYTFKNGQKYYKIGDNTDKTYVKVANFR
Description: mosaic S-layer of L. acidophilus transformants; 5 M LiCl extraction and FACS.

No constants are given. Whether binding was seen depends on the method and setting. Some results given as binding are weak or reduced against the parent protein; the word gives no strength. Sequences can lack the tags named with a protein.

B1: mutant SA-protein SA13c (c-myc insertion at position 156), produced in L. acidophilus (protein)
chain: ATTINASSSAINTNTNAKYDVDVTPSVSAVAANTANNTPAIAGNLTGTISASYNGKTYTANLKADTENATITAAGSTTAVKPAELAAGVAYTVTVNDVSFNFGSENAGKTVTLGSANSNVKFTGTNSDNQTETNVSTLKVKLDQNGVASLTNVSITMVNEQKLISEEDLNARGIANVYAINTTDNSNVNFYDVTSGATVTNGAVSVNADNQGQVNVANVVAAINSKYFAAQYADKKLNTRTANTEDAIKAALKDQKIDVNSVGYFKAPHTFTVNVKATSNTNGKSATLPVVVTVPNVAEPTVASVSKRIMHNAYYYDKDAKRVGTDSVKRYNSVSVLPNTTTINGKTYYQVVENGKAVDKYINAANIDGTKRTLKHNAYVYASSKKRANKVVLKKGEVVTTYGASYTFKNGQKYYKIGDNTDKTYVKVANF
B1: the binding entry is recorded as “binds”.
